Among the targets are NSP4_Ct (SARS-CoV-2) (UniProt P0DTD1); NSP6 (SARS-CoV-2) (UniProt P0DTD1); NSP9 (SARS-CoV-2) (UniProt P0DTD1); NSP16 (SARS-CoV-2) (UniProt P0DTD1).
Common to all, as to assay: proximity labelling
The target of assay [1] is ORF9B_Nt (SARS-CoV-2), P0DTD2. Particulars: remark: other sources report otherwise.
For assay [2], the target named is ORF9B_Ct (SARS-CoV-2), P0DTD2. The settings on record: remark: other sources report otherwise.
The target of assay [3] is G3BP1 (miniTurbo host bait) (UniProt Q13283).

By UniProt entry, the sequences of proteins in these tests, tags left out. Where a name states a change or a piece, a line headed by the entry shows the natural chain unless it says otherwise.
UniProt P0DTD2, whole entry, stated change not applied: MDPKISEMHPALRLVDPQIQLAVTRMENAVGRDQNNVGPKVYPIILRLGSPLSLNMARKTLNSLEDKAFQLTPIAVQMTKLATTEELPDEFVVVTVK
UniProt Q13283, whole entry, stated change not applied: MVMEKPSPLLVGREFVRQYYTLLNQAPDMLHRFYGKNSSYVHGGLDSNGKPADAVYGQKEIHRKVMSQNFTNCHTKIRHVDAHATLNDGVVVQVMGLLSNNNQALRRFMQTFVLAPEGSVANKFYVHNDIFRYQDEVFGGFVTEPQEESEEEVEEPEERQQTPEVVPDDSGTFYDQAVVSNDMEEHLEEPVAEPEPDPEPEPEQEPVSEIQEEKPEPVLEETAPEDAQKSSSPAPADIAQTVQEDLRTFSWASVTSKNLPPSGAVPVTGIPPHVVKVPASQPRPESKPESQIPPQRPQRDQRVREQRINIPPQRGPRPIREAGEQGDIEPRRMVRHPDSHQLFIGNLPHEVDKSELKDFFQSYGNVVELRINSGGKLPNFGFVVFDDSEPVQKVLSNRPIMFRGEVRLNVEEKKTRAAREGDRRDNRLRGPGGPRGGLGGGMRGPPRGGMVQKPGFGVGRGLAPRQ

Results are given in words; binding and its absence hold for the method and conditions named. In cells and extracts the contact can be indirect. A yes stands for co-enrichment or nearness to the bait. Other partners may have been found.

B1: MOSPD2 (protein, UniProt Q8NHP6 1-518)
chain: MAENHAQNKAKLISETRRRFEAEYVTDKSDKYDARDVERLQQDDNWVESYLSWRHNIVDETLKMLDESFQWRKEISVNDLNESSIPRWLLEIGVIYLHGYDKEGNKLFWIRVKYHVKDQKTILDKKKLIAFWLERYAKRENGKPVTVMFDLSETGINSIDMDFVRFIINCFKVYYPKYLSKIVIFDMPWLMNAAFKIVKTWLGPEAVSLLKFTSKNEVQDYVSVEYLPPHMGGTDPFKYSYPPLVDDDFQTPLCENGPITSEDETSSKEDIESDGKETLETISNEEQTPLLKKINPTESTSKAEENEKVDSKVKAFKKPLSVFKGPLLHISPAEELYFGSTESGEKKTLIVLTNVTKNIVAFKVRTTAPEKYRVKPSNSSCDPGASVDIVVSPHGGLTVSAQDRFLIMAAEMEQSSGTGPAELTQFWKEVPRNKVMEHRLRCHTVESSKPNTLTLKDNAFNMSDKTSEDICLQLSRLLESNRKLEDQVQRCIWFQQLLLSLTMLLLAFVTSFFYLLYS
Regarding B1, the binding result in the assay with NSP4_Ct (SARS-CoV-2) was “binds”.

B2: KCTD9 (protein, UniProt Q7L273 1-389)
chain: MRRVTLFLNGSPKNGKVVAVYGTLSDLLSVASSKLGIKATSVYNGKGGLIDDIALIRDDDVLFVCEGEPFIDPQTDSKPPEGLLGFHTDWLTLNVGGRYFTTTRSTLVNKEPDSMLAHMFKDKGVWGNKQDHRGAFLIDRSPEYFEPILNYLRHGQLIVNDGINLLGVLEEARFFGIDSLIEHLEVAIKNSQPPEDHSPISRKEFVRFLLATPTKSELRCQGLNFSGADLSRLDLRYINFKMANLSRCNLAHANLCCANLERADLSGSVLDCANLQGVKMLCSNAEGASLKLCNFEDPSGLKANLEGANLKGVDMEGSQMTGINLRVATLKNAKLKNCNLRGATLAGTDLENCDLSGCDLQEANLRGSNVKGAIFEEMLTPLHMSQSVR
Consider B2, for which the binding result in the assay with NSP6 (SARS-CoV-2) was “binds”.

B3: MAVS, Q7Z434 1-540 (protein)
chain: MPFAEDKTYKYICRNFSNFCNVDVVEILPYLPCLTARDQDRLRATCTLSGNRDTLWHLFNTLQRRPGWVEYFIAALRGCELVDLADEVASVYQSYQPRTSDRPPDPLEPPSLPAERPGPPTPAAAHSIPYNSCREKEPSYPMPVQETQAPESPGENSEQALQTLSPRAIPRNPDGGPLESSSDLAALSPLTSSGHQEQDTELGSTHTAGATSSLTPSRGPVSPSVSFQPLARSTPRASRLPGPTGSVVSTGTSFSSSSPGLASAGAAEGKQGAESDQAEPIICSSGAEAPANSLPSKVPTTLMPVNTVALKVPANPASVSTVPSKLPTSSKPPGAVPSNALTNPAPSKLPINSTRAGMVPSKVPTSMVLTKVSASTVPTDGSSRNEETPAAPTPAGATGGSSAWLDSSSENRGLGSELSKPGVLASQVDSPFSGCFEDLAISASTSLGMGPCHGPEENEYKSEGTFGIHVAENPSIQLLEGNPGPPADPDGGPRPQADRKFQEREVPCHRPSPGALWLQVAVTGVLVVTLLVVLYRRRLH
For the molecule B3, the binding entry in assay [1] and in assay [2] was “binds” each time.

B4: TOB1 (protein, UniProt P50616 1-345)
chain: MQLEIQVALNFIISYLYNKLPRRRVNIFGEELERLLKKKYEGHWYPEKPYKGSGFRCIHIGEKVDPVIEQASKESGLDIDDVRGNLPQDLSVWIDPFEVSYQIGEKGPVKVLYVDDNNENGCELDKEIKNSFNPEAQVFMPISDPASSVSSSPSPPFGHSAAVSPTFMPRSTQPLTFTTATFAATKFGSTKMKNSGRSNKVARTSPINLGLNVNDLLKQKAISSSMHSLYGLGLGSQQQPQQQQQPAQPPPPPPPPQQQQQQKTSALSPNAKEFIFPNMQGQGSSTNGMFPGDSPLNLSPLQYSNAFDVFAAYGGLNEKSFVDGLNFSLNNMQYSNQQFQPVMAN
Turning to B4, the binding result with NSP9 (SARS-CoV-2) was “binds”.

B5: USP19 (enzyme, UniProt O94966 1-1318)
chain: MSGGASATGPRRGPPGLEDTTSKKKQKDRANQESKDGDPRKETGSRYVAQAGLEPLASGDPSASASHAAGITGSRHRTRLFFPSSSGSASTPQEEQTKEGACEDPHDLLATPTPELLLDWRQSAEEVIVKLRVGVGPLQLEDVDAAFTDTDCVVRFAGGQQWGGVFYAEIKSSCAKVQTRKGSLLHLTLPKKVPMLTWPSLLVEADEQLCIPPLNSQTCLLGSEENLAPLAGEKAVPPGNDPVSPAMVRSRNPGKDDCAKEEMAVAADAATLVDEPESMVNLAFVKNDSYEKGPDSVVVHVYVKEICRDTSRVLFREQDFTLIFQTRDGNFLRLHPGCGPHTTFRWQVKLRNLIEPEQCTFCFTASRIDICLRKRQSQRWGGLEAPAARVGGAKVAVPTGPTPLDSTPPGGAPHPLTGQEEARAVEKDKSKARSEDTGLDSVATRTPMEHVTPKPETHLASPKPTCMVPPMPHSPVSGDSVEEEEEEEKKVCLPGFTGLVNLGNTCFMNSVIQSLSNTRELRDFFHDRSFEAEINYNNPLGTGGRLAIGFAVLLRALWKGTHHAFQPSKLKAIVASKASQFTGYAQHDAQEFMAFLLDGLHEDLNRIQNKPYTETVDSDGRPDEVVAEEAWQRHKMRNDSFIVDLFQGQYKSKLVCPVCAKVSITFDPFLYLPVPLPQKQKVLPVFYFAREPHSKPIKFLVSVSKENSTASEVLDSLSQSVHVKPENLRLAEVIKNRFHRVFLPSHSLDTVSPSDTLLCFELLSSELAKERVVVLEVQQRPQVPSVPISKCAACQRKQQSEDEKLKRCTRCYRVGYCNQLCQKTHWPDHKGLCRPENIGYPFLVSVPASRLTYARLAQLLEGYARYSVSVFQPPFQPGRMALESQSPGCTTLLSTGSLEAGDSERDPIQPPELQLVTPMAEGDTGLPRVWAAPDRGPVPSTSGISSEMLASGPIEVGSLPAGERVSRPEAAVPGYQHPSEAMNAHTPQFFIYKIDSSNREQRLEDKGDTPLELGDDCSLALVWRNNERLQEFVLVASKELECAEDPGSAGEAARAGHFTLDQCLNLFTRPEVLAPEEAWYCPQCKQHREASKQLLLWRLPNVLIVQLKRFSFRSFIWRDKINDLVEFPVRNLDLSKFCIGQKEEQLPSYDLYAVINHYGGMIGGHYTACARLPNDRSSQRSDVGWRLFDDSTVTTVDESQVVTRYAYVLFYRRRNSPVERPPRAGHSEHHPDLGPAAEAAASQASRIWQELEAEEEPVPEGSGPLGPWGPQDWVGPLPRGPTTPDEGCLRYFVLGTVAALVALVLNVFYPLVSQSRWR
For the molecule B5, the binding entry in the assay with NSP6 (SARS-CoV-2) is reported as “binds”.

B6: IBTK (protein, UniProt Q9P2D0 1-1353)
chain: MSSPMPDCTSKCRSLKHALDVLSVVTKGSENQIKAFLSSHCYNAATIKDVFGRNALHLVSSCGKKGVLDWLIQKGVDLLVKDKESGWTALHRSIFYGHIDCVWSLLKHGVSLYIQDKEGLSALDLVMKDRPTHVVFKNTDPTDVYTWGDNTNFTLGHGSQNSKHHPELVDLFSRSGIYIKQVVLCKFHSVFLSQKGQVYTCGHGPGGRLGHGDEQTCLVPRLVEGLNGHNCSQVAAAKDHTVVLTEDGCVYTFGLNIFHQLGIIPPPSSCNVPRQIQAKYLKGRTIIGVAAGRFHTVLWTREAVYTMGLNGGQLGCLLDPNGEKCVTAPRQVSALHHKDIALSLVAASDGATVCVTTRGDIYLLADYQCKKMASKQLNLKKVLVSGGHMEYKVDPEHLKENGGQKICILAMDGAGRVFCWRSVNSSLKQCRWAYPRQVFISDIALNRNEILFVTQDGEGFRGRWFEEKRKSSEKKEILSNLHNSSSDVSYVSDINSVYERIRLEKLTFAHRAVSVSTDPSGCNFAILQSDPKTSLYEIPAVSSSSFFEEFGKLLREADEMDSIHDVTFQVGNRLFPAHKYILAVHSDFFQKLFLSDGNTSEFTDIYQKDEDSAGCHLFVVEKVHPDMFEYLLQFIYTDTCDFLTHGFKPRIHLNKNPEEYQGTLNSHLNKVNFHEDDNQKSAFEVYKSNQAQTVSERQKSKPKSCKKGKNIREDDPVRMLQTVAKKFDFSNLSSRLDGVRFENEKINVIAKNTGNKLKLSQKKCSFLCDVTMKSVDGKEFPCHKCVLCARLEYFHSMLSSSWIEASSCAALEMPIHSDILKVILDYLYTDEAVVIKESQNVDFICSVLVVADQLLITRLKEICEVALTEKLTLKNAAMLLEFAAMYSAKQLKLSCLQFIGLNMAALLEARSLDVLSDGVLKDLSEFYRKMIPAMDRRVITPYQDGPDISYLEVEDGDIFLKEEINMEQNHSETMFKKAKTKAKKKPRKRSDSSGGYNLSDIIQSPSSTGLLKSGKTNSVESLPELLTSDSEGSYAGVGSPRDLQSPDFTTGFHSDKIEAKVKPYVNGTSPVYSREDLKPWEKSPILKISAPQPIPSNRIDTTSSASWVAGSFSPVSPPVVDLRTIMEIEESRQKCGATPKSHLGKTVSHGVKLSQKQRKMIALTTKENNSGMNSMETVLFTPSKAPKPVNAWASSLHSVSSKSFRDFLLEEKKSVTSHSSGDHVKKVSFKGIENSQAPKIVRCSTHGTPGPEGNHISDLPLLDSPNPWLSSSVTAPSMVAPVTFASIVEEELQQEAALIRSREKPLALIQIEEHAIQDLLVFYEAFGNPEEFVIVERTPQGPLAVPMWNKHGC
As for B6, the binding result with NSP16 (SARS-CoV-2) is “binds”.

B7: UBAP2 (protein, UniProt Q5T6F2 1-1119)
chain: MMTSVSSDHCRGAREKPQISAAQSTQPQKQVVQATAEQMRLAQVIFDKNDSDFEAKVKQLMEVTGKNQDECIVALHDCNGDVNKAINILLEGNSDTTSWETVGCKKKNFAKENSENKENREKKSEKESSRGRGNNNRKGRGGNRGREFRGEENGIDCNQVDKPSDRGKRARGRGFGRGRGRGAGRFSTQGMGTFNPADYSDSTSTDVCGTKLVVWEAAQNGADEGTELASNTHNIAQDLSNKSSYGLKGAWKNSVEEWTTEDWTEDLSETKVFTASSAPAENHILPGQSIDLVALLQKPVPHSQASEANSFETSQQQGFGQALVFTNSQHNNQMAPGTGSSTAVNSCSPQSLSSVLGSGFGELAPPKMANITSSQILDQLKAPSLGQFTTTPSTQQNSTSHPTTTTSWDLKPPTSQSSVLSHLDFKSQPEPSPVLSQLSQRQQHQSQAVTVPPPGLESFPSQAKLRESTPGDSPSTVNKLLQLPSTTIENISVSVHQPQPKHIKLAKRRIPPASKIPASAVEMPGSADVTGLNVQFGALEFGSEPSLSEFGSAPSSENSNQIPISLYSKSLSEPLNTSLSMTSAVQNSTYTTSVITSCSLTSSSLNSASPVAMSSSYDQSSVHNRIPYQSPVSSSESAPGTIMNGHGGGRSQQTLDTPKTTGPPSALPSVSSLPSTTSCTALLPSTSQHTGDLTSSPLSQLSSSLSSHQSSLSAHAALSSSTSHTHASVESASSHQSSATFSTAATSVSSSASSGASLSSSMNTANSLCLGGTPASASSSSSRAAPLVTSGKAPPNLPQGVPPLLHNQYLVGPGGLLPAYPIYGYDELQMLQSRLPVDYYGIPFAAPTALASRDGSLANNPYPGDVTKFGRGDSASPAPATTPAQPQQSQSQTHHTAQQPFVNPALPPGYSYTGLPYYTGMPSAFQYGPTMFVPPASAKQHGVNLSTPTPPFQQASGYGQHGYSTGYDDLTQGTAAGDYSKGGYAGSSQAPNKSAGSGPGKGVSVSSSTTGLPDMTGSVYNKTQTFDKQGFHAGTPPPFSLPSVLGSTGPLASGAAPGYAPPPFLHILPAHQQPHSQLLHHHLPQDAQSGSGQRSQPSSLQPKSQASKPAYGNSPYWTN
For B7, the binding result in assay [3] is on record as “binds”.

These data come from article doi:10.1101/2020.09.03.282103.
